Test results: patent US5232917A, “Methods, compositions, and compounds for allosteric modulation of the GABA receptor by members of the androstane and pregnane series” (priority 1991, dated 1993)

Test system: GABA receptor-chloride ionophore complex (GR complex)
Experiment: Dissociation kinetics of [35S]TBPS in rat cerebral cortical membranes
Type: binding
Conditions: alphaxalone 300 nM, 3α-OH-DHP 20 nM
[1] = Na pentobarbital 30 μM, 2 nM [35S]TBPS

CC(=O)[C@H]1CC[C@H]2[C@@H]3CC[C@H]4C[C@H](O)CC[C@]4(C)[C@H]3C(=O)C[C@]12C [alphaxalone, 5α-PREGNAN-3α-OL-11,20-DIONE]
Total percentage of specific sites, rapid (R) (Na pentobarbital 30 μM): 34 ± 5%
Total percentage of specific sites, slow (S) (Na pentobarbital 30 μM): 73 ± 4%
K-1, rapidly dissociating component (R) [1]: 0.180 ± 0.040 min⁻¹
K-1, slowly dissociating component (S) [1]: 0.0120 ± 0.003 min⁻¹
T1/2, rapidly dissociating component (R) [1]: 4.9 ± 1 min
T1/2, slowly dissociating component (S) [1]: 67 ± 12 min
biphasic dissociation mechanism of [35S]TBPS (pentobarbital 30 μM, FIGS. 2A, 2B): absent
